According to paper PMC9306183:
No constants are given. Whether binding was seen depends on the method and setting. Binding seen in cells or lysates may run through a third protein. Some results given as binding are weak or reduced against the parent protein; the word gives no strength. For some of these results: Where a sequence is shown, tags or fusion partners need not be part of it. Each block holds one molecule with its values, some of them ahead of it.

Chains of the proteins cited; added tags and fusions are not shown.
UniProt P01106: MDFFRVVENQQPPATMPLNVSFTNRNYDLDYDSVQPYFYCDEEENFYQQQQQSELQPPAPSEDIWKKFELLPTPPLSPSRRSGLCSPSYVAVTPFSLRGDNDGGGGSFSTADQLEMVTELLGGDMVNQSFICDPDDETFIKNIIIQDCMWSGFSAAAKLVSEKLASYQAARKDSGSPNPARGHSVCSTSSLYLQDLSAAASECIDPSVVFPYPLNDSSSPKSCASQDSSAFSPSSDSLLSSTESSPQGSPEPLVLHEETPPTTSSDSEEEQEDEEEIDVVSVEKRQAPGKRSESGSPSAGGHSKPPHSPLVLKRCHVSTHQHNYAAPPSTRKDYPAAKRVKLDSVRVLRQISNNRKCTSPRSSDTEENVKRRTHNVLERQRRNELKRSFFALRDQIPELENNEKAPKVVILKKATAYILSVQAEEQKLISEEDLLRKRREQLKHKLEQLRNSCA
UniProt P63208: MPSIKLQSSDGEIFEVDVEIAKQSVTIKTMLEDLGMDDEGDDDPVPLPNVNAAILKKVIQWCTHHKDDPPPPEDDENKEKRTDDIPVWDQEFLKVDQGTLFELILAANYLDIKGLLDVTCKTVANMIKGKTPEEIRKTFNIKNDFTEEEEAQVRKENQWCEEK

Key:
[1] = molecular target: T1, MAGI3 stably expressed in RKO cells (RKO-MAGI3) (UniProt Q5TCQ9); assay: co-IP; RKO-MAGI3 cell lysates immunoprecipitated with anti-MAGI3 antibodies; c-Myc, SKP1 and CUL1 detected by western blot
T1 sequence: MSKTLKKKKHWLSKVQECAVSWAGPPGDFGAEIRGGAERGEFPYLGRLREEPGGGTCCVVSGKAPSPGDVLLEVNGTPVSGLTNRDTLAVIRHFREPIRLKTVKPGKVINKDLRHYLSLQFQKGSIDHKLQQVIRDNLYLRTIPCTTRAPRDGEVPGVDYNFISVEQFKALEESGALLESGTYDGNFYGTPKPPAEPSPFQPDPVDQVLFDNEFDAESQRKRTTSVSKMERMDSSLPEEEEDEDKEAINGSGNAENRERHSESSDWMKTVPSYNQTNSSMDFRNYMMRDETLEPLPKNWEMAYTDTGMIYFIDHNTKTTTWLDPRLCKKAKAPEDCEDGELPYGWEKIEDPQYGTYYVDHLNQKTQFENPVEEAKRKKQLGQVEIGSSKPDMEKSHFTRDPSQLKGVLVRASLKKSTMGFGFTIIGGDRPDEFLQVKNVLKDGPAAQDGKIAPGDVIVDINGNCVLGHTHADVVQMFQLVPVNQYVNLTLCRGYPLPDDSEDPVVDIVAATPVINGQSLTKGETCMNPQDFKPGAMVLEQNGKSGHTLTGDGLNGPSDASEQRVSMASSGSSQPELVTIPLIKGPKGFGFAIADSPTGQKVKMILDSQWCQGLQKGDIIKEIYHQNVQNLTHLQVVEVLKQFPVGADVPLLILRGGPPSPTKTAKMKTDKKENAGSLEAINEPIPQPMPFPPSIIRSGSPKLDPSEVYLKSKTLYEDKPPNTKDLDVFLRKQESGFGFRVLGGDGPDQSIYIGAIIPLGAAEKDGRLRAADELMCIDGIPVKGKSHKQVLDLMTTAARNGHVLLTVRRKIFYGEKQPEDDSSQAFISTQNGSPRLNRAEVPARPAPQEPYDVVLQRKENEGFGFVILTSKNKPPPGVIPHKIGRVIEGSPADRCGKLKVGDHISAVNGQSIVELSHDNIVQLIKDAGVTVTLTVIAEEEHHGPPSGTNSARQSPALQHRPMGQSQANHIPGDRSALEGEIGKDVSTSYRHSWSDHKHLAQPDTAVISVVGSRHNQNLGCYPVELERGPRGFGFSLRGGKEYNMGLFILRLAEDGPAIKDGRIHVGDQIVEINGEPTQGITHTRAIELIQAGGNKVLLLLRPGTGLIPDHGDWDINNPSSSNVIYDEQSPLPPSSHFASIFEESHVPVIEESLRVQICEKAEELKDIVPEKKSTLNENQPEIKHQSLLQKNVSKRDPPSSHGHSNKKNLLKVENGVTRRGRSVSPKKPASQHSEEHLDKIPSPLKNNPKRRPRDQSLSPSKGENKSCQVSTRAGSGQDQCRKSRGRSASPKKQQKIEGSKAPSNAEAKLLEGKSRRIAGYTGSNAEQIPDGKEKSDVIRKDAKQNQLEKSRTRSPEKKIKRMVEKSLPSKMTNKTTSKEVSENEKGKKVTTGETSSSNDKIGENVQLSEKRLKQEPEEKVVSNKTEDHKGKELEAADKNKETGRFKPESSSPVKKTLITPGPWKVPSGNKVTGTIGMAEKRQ

[2] = molecular target: c-Myc, endogenous (human (endogenous in CRC cells)) (UniProt P01106); assay: co-IP; endogenous proteins; CRC cell lysates immunoprecipitated with anti-c-Myc antibodies, MAGI3 detected by western blot; lysis buffer 10 mM Hepes, 50 mM NaCl, 5 mM EDTA, 1 mM benzamidine, 0.5% Triton X-100; 3 h at 4 °C
[3] = molecular target: c-Myc, exogenous tagged protein in HEK293 cells (UniProt P01106); assay: co-IP; reciprocal co-IP of exogenous tagged MAGI3 and c-Myc in HEK293 cells; western blot

Molecule: c-Myc, endogenous (from UniProt P01106 1-454)
- binding [1]: binds

B2: MAGI3, exogenous tagged protein in HEK293 cells (protein, UniProt Q5TCQ9 1-1481)
chain: T1 sequence
- binding [3]: binds

Second part, the molecule after the results:

- binding [1]: binds
Molecule: SKP1, endogenous in RKO cells (from UniProt P63208 1-163)

- binding [2]: binds
B1: membrane associated guanylate kinase, WW and PDZ domain containing 3 (MAGI3), endogenous (protein, UniProt Q5TCQ9 1-1481)
chain: T1 sequence
